Experimental data taken from doi:10.1101/2025.04.11.648483.

By UniProt entry, the sequences of proteins in these tests, tags left out.
UniProt A0A0K3AR81: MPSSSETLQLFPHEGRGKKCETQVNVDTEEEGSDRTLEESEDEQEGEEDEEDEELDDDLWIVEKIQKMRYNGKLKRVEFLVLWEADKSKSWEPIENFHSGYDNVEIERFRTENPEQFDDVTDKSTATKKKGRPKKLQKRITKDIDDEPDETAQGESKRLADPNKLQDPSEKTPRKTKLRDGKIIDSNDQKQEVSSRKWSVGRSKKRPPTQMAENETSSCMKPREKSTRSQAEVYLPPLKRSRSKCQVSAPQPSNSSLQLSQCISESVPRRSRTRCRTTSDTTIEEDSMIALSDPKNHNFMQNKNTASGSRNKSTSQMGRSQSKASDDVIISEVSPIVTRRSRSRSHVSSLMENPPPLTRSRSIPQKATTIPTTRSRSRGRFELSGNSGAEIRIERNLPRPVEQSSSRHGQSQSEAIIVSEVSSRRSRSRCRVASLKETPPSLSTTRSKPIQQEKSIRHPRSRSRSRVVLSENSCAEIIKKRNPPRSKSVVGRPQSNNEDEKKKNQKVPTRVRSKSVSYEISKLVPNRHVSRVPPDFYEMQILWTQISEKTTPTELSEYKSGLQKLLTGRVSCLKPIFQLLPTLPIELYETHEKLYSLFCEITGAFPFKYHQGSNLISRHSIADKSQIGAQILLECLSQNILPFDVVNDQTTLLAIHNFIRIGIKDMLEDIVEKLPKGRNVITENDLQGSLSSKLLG

How the values were obtained:
[1] = target: T1, 3xFLAG-tagged TAF-12 (C. elegans) (UniProt Q9U226); experiment: affinity purification with mass spectrometry
T1 sequence: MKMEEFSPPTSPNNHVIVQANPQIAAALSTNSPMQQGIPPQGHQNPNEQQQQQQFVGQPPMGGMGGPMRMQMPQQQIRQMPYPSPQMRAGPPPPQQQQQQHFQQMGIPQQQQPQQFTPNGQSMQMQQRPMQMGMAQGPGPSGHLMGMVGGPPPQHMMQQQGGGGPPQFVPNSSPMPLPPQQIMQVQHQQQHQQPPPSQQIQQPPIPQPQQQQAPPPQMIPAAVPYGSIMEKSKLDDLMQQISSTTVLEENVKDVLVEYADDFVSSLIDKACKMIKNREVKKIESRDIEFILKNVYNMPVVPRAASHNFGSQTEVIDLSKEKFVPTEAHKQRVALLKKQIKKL

[2] = target: UAD-2::GFP::3xFLAG (C. elegans); experiment: affinity purification with mass spectrometry

binding [1]: binds
Molecule: UAD-2 (endogenous, in worm lysate) (from UniProt A0A0K3AR81 1-696)

binding [2]: binds
B1: TAF-12 (endogenous, in worm lysate) (protein, UniProt Q9U226 1-342)
chain: T1 sequence

Results are given in words; binding and its absence hold for the method and conditions named. In cells and extracts the contact can be indirect. These calls come from enrichment with a bait or labelling near it, and not all partners need be listed. For some assays here: Sequences can lack the tags named with a protein. One block for each molecule: values may come before it.
